According to patent publication US8435982B2, “Pharmaceutical formulation containing lipophilic drugs and milk as a solubilizing/dispensing agent and method for the preparation thereof” (Pharmathen S.A., priority 2007, dated 2013):
For at least one compound, name, drawing or mass did not settle the structure.

How the values were obtained:
[1] = set-up: key: I: Permeability High, Solubility High; II: Permeability High, Solubility Low; III: Permeability Low, Solubility High; IV: Permeability Low, Solubility Low; conditions: cited from earlier work
[2] = Stability studies of NSAID alkaline buffer solutions; assay type: physicochemical; conditions: for total amount of drug compared to the initial value: alkaline buffer solution pH 12
Description: The drugs were dissolved in the following buffers: 0.2 M NaH2PO4—NaOH pH 12 and 0.05 M glycine-NaOH pH 12. A weighted amount of drug, corresponding to its therapeutic dose, was dissolved in the appropriate volume of alkaline buffer. […] Also, the pH values of the aqueous alkaline NSAIDs solutions were measured before storage and at the predetermined time points.

[3] = long term studies at 25° C. (3, 6 and 9 months)

Row | Compound | Biopharmaceutics Classification System class [1] | total amount of drug compared to the initial value ([2]; accelerated stability studies, 30° C.) | total amount of drug compared to the initial value ([2]; accelerated stability studies, 40° C.) | % change of drug amount ([2]; long term and accelerated stability studies) | pH values compared to the initial value [2, 3] | total amount of drug compared to the initial value [2, 3] [%]
1 | CCC(C)n1ncn(-c2ccc(N3CCN(c4ccc(OCC5COC(Cn6cncn6)(c6ccc(Cl)cc6Cl)O5)cc4)CC3)cc2)c1=O (stereo not drawn) [itraconazole] | II | – | – | – | – | –
2 | Cc1cnc(NC(=O)C2=C(O)c3ccccc3S(=O)(=O)N2C)s1 [Meloxicam] | – | 96-103% | 96-103% | within acceptable ranges | 100.9-102% | 99 to 103
